Measured values reported in article PMC12261228 (ACS Pharmacology & Translational Science, 2025).

Test system: U2OS cells
Assay: Live-cell imaging of intracellular distribution
Type: cell-based, human
Conditions: 1 μM, 5 min, 37 °C

| Compound | distribution in living cells (in words) |
| --- | --- |
| COc1cc2c(c(OC)c1OC)-c1ccc(OC)c(=O)cc1[C@@H](n1cc(CCCC3=C4C(C)=CC(C)=[N+]4[B-](F)(F)n4c(C)cc(C)c43)nn1)CC2 [CB4] | confirmed the association of CB4 with these organelles |
| C#CCCCC1=C2C(C)=CC(C)=[N+]2[B-](F)(F)n2c(C)cc(C)c21 [B9] | stained cells only weakly |
